This is one part of the list.
What was measured:
Experiment in all cases: log2 fold change, soluble protein after heating vs DMSO (PISA); higher = thermal stabilisation; K562 cells, 10 uM, 30 min; active = over 0.2 and 3.5 SD of the protein, either way, in both replicates (recomputed)
[1] = compound: CS(=O)(=O)c1ccc(-c2cnc(N)c(C(=O)Nc3ccccc3)n2)cc1
Method in brief: (§1)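 Quantification of soluble protein used TMTpro 16plex LC-MS/MS, with channel sums equalised. Samples were the supernatant after 21,000xg for 90 min of pooled aliquots from K562 cells (2×10^6 cells/mL) treated with 10 μM compound for 30 min, heated for 3 min over 48°C-58°C, and extracted in PBS with 0.5% NP-40 at 4°C. Values, from duplicates, describe thermal stability against control samples on a log2 fold-change scale.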

Protein sequences, listed by entry. Tags and fused reporters are not part of them. Lines headed by an entry give the natural chain unless they say otherwise; changes in a name come on top.
UniProt Q3KQV9: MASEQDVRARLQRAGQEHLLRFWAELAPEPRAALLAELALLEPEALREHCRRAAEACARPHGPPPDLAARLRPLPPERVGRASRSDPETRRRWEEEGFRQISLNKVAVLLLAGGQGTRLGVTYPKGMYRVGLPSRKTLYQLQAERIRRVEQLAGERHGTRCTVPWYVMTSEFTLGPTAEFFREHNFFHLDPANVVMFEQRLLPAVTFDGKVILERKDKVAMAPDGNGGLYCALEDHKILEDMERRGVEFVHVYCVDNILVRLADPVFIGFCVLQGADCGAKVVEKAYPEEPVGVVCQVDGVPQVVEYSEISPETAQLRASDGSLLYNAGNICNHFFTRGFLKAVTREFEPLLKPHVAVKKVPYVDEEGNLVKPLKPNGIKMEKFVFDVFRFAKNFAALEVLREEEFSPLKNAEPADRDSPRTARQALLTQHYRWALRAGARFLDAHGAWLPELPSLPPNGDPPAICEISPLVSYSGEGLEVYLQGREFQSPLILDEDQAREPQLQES
UniProt Q6DKK2: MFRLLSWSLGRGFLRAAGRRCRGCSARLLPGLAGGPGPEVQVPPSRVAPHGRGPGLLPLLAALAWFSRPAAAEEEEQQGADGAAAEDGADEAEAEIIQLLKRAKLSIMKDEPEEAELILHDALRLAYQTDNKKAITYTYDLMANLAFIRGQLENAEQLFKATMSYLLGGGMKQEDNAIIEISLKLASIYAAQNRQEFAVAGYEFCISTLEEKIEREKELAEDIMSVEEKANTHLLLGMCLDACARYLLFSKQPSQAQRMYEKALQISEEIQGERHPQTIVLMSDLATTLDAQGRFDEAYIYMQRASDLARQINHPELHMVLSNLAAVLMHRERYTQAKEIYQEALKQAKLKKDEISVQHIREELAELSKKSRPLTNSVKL
UniProt P61077: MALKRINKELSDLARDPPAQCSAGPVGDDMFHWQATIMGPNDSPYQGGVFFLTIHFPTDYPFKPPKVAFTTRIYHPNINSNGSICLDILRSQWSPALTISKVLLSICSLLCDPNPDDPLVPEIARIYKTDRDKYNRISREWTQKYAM
UniProt Q9GZZ9, whole entry, looked up: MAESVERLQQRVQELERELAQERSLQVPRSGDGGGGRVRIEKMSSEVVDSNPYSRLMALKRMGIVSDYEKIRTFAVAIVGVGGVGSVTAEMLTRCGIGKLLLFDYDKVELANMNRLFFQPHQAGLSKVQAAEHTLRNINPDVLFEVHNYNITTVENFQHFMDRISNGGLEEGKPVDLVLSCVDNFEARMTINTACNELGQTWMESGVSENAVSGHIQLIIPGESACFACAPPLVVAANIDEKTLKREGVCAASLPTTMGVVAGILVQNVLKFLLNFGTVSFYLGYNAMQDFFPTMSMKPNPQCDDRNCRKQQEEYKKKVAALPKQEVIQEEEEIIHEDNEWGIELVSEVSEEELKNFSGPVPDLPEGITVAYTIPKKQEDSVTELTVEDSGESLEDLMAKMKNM
UniProt Q8TBC4: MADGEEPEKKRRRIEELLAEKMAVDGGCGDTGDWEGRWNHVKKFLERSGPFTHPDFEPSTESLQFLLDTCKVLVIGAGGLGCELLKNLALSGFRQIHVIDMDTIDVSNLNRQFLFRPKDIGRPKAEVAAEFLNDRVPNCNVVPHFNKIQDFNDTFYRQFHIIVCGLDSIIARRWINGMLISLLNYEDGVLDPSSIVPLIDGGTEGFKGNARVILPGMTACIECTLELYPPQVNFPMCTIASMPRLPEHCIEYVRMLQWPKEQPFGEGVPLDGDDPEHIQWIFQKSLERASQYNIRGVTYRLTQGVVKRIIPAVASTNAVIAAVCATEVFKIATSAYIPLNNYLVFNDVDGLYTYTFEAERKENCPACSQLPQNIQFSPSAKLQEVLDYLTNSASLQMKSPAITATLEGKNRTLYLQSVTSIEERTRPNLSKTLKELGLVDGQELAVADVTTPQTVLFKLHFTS
UniProt Q05086: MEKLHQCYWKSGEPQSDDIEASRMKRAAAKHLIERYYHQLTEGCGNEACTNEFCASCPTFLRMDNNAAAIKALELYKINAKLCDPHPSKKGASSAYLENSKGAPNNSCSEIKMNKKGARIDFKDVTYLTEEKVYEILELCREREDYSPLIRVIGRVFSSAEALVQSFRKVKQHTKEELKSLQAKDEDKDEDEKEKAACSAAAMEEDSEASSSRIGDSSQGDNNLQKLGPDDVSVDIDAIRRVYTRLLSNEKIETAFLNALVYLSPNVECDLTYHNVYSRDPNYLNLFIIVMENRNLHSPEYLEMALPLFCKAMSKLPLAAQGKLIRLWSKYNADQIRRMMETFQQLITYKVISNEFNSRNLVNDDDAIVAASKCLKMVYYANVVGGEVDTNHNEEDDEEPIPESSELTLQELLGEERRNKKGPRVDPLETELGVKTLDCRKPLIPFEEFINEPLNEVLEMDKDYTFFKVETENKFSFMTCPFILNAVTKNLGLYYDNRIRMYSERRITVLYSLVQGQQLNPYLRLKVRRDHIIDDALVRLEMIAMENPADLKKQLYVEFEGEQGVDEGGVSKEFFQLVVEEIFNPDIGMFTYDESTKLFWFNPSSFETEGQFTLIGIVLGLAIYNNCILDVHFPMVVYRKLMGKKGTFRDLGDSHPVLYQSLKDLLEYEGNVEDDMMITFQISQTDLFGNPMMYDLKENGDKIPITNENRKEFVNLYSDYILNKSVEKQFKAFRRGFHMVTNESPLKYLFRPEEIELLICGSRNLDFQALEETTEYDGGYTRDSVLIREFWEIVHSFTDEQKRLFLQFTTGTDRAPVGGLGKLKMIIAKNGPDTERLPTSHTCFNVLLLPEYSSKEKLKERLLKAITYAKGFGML
UniProt Q969E8: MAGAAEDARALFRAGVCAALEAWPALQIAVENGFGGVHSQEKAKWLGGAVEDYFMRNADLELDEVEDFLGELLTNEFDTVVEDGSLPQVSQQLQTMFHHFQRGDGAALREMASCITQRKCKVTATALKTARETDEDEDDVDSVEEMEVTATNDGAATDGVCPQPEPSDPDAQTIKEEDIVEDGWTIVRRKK
UniProt P10599: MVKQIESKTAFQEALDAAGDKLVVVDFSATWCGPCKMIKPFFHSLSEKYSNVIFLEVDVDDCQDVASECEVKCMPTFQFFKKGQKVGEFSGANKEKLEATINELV
UniProt P68371, whole entry, looked up: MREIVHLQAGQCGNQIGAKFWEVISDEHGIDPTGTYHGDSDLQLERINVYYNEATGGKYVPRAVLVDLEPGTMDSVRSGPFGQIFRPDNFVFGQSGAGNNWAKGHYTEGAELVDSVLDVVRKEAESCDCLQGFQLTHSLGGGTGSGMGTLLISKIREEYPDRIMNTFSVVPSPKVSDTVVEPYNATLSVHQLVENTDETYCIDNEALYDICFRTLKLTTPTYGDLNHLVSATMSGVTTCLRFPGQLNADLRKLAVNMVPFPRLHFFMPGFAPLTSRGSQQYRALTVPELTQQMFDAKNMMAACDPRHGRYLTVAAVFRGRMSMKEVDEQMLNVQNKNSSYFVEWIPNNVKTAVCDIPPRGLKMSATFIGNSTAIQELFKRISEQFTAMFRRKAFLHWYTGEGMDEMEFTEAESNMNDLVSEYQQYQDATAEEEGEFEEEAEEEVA
UniProt Q9NUQ3: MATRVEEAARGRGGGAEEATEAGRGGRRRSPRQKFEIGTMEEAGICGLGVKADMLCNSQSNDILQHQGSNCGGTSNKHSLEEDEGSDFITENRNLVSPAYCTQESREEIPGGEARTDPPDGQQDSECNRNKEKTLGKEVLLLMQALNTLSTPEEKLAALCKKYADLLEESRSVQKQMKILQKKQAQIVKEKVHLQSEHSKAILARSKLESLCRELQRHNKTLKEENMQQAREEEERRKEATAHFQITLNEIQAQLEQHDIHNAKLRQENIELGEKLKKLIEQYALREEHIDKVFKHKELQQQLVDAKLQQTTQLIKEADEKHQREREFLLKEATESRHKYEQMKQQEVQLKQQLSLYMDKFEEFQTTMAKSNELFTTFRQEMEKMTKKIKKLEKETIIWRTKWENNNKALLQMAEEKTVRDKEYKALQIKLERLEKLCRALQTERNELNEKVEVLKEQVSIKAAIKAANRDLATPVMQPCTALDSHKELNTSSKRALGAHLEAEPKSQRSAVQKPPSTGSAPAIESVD
UniProt Q7Z6J9: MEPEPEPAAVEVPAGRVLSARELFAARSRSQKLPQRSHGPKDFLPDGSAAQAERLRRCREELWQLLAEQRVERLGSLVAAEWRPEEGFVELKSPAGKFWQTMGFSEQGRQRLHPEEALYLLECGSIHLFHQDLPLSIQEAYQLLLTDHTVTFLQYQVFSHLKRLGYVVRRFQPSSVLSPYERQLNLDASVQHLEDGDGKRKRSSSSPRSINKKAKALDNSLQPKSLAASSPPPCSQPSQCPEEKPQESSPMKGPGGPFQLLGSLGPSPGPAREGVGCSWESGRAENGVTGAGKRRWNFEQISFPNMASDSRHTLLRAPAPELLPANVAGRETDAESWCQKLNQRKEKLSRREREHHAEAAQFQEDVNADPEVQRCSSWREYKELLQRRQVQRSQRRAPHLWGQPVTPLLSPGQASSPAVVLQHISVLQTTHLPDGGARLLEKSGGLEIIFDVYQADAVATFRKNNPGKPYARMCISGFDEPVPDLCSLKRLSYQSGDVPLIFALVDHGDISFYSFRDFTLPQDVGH
UniProt Q99614: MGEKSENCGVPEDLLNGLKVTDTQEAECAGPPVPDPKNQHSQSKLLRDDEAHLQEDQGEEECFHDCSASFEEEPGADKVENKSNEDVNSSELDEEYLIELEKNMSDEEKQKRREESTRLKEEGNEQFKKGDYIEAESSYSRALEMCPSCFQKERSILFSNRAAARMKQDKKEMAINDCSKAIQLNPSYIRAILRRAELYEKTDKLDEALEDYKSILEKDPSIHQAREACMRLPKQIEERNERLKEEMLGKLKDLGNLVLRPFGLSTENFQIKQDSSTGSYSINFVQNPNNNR
UniProt Q2NL82: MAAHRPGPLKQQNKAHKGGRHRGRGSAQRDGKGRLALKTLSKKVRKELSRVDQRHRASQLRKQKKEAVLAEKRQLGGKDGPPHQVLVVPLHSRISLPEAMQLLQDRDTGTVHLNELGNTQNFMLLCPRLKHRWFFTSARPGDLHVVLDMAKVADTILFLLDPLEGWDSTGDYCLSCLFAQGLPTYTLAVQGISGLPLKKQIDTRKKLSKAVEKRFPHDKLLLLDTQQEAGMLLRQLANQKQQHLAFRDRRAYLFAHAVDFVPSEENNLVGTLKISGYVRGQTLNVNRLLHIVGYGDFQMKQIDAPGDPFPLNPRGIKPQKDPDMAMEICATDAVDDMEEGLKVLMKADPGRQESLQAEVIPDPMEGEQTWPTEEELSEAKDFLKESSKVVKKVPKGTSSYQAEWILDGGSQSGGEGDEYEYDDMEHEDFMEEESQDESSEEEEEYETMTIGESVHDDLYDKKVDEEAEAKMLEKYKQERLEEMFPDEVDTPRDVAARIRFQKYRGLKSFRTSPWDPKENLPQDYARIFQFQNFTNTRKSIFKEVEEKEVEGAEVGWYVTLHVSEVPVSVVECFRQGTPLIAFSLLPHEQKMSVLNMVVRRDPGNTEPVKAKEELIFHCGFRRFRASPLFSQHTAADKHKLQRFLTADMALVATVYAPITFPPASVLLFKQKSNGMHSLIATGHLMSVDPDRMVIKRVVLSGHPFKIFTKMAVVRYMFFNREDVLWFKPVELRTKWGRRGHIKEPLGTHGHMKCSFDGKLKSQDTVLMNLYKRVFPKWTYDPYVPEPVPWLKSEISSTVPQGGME
UniProt P07437, whole entry, looked up: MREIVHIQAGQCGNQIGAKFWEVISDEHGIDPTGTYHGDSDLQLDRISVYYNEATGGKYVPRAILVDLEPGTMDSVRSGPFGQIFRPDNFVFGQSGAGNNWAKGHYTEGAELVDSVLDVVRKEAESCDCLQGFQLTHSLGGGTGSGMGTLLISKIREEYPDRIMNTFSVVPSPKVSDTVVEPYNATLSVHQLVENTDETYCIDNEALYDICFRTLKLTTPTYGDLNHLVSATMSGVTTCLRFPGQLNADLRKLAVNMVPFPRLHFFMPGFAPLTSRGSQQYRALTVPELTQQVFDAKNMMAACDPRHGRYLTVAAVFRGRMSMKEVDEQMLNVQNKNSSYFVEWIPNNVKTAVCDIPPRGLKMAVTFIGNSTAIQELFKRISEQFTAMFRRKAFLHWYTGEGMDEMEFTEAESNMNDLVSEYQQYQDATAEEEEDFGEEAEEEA
UniProt Q5JXB2: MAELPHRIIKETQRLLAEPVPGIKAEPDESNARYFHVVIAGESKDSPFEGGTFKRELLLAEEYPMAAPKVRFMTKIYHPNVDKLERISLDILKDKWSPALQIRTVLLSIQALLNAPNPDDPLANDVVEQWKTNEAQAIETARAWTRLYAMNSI
UniProt Q15631: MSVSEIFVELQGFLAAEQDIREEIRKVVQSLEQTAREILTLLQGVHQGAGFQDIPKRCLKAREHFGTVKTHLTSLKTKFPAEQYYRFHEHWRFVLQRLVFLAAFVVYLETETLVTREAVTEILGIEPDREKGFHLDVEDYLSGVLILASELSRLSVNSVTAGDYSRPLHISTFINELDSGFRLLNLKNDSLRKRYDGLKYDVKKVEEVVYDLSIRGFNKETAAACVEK

crizotinib = compound: C[C@@H](Oc1cc(-c2cnn(C3CCNCC3)c2)cnc1N)c1c(Cl)ccc(F)c1Cl [crizotinib]
Method in brief: as §1

[2] = compound: C[C@@H]1COCCN1C2=NC(=NC(=C2)C3(CC3)S(=O)(=O)C)C4=C5C=CNC5=CC=C4
Method in brief: as §1

[3] = compound: C[C@H](C1=CC=C(C=C1)C(=O)NC2=C3C=CNC3=NC=C2)N
Method in brief: as §1

duvelisib = compound: C[C@H](Nc1ncnc2nc[nH]c12)c1cc2cccc(Cl)c2c(=O)n1-c1ccccc1 [duvelisib]
Method in brief: as §1

gandotinib = compound: Cc1cc(Nc2cc(CN3CCOCC3)c3nc(C)c(Cc4ccc(Cl)cc4F)n3n2)n[nH]1 [gandotinib]
Method in brief: as §1

tozasertib = compound: Cc1cc(Nc2cc(N3CCN(C)CC3)nc(Sc3ccc(NC(=O)C4CC4)cc3)n2)n[nH]1 [tozasertib]
Method in brief: as §1

[4] = compound: Cc1cc(SCc2sc(-c3ccc(C(F)(F)F)cc3)nc2C)ccc1OCC(=O)O
Method in brief: as §1

doramapimod = compound: Cc1ccc(-n2nc(C(C)(C)C)cc2NC(=O)Nc2ccc(OCCN3CCOCC3)c3ccccc23)cc1 [doramapimod]
Method in brief: as §1

ispinesib = compound: Cc1ccc(C(=O)N(CCCN)[C@@H](c2nc3cc(Cl)ccc3c(=O)n2Cc2ccccc2)C(C)C)cc1 [ispinesib]
Method in brief: as §1

bafetinib = compound: Cc1ccc(NC(=O)c2ccc(CN3CC[C@H](N(C)C)C3)c(C(F)(F)F)c2)cc1Nc1nccc(-c2cncnc2)n1 [bafetinib]
Method in brief: as §1

[5] = compound: Cc1cccc(CC(=O)N2CCc3c2ccc(-c2cn(C)c4ncnc(N)c24)c3F)n1
Method in brief: as §1

nilotinib = compound: Cc1cn(-c2cc(NC(=O)c3ccc(C)c(Nc4nccc(-c5cccnc5)n4)c3)cc(C(F)(F)F)c2)cn1 [nilotinib]
Method in brief: as §1

[6] = compound: Cc1nc(Nc2n[nH]c3c2CN(C(=O)N[C@H](CN(C)C)c2ccccc2)C3(C)C)c2sccc2n1
Method in brief: as §1

dasatinib = compound: Cc1nc(Nc2ncc(C(=O)Nc3c(C)cccc3Cl)s2)cc(N2CCN(CCO)CC2)n1 [dasatinib]
Method in brief: as §1

[7] = compound: Cc1ncc(-c2ccnc(Nc3ccc(S(C)(=O)=O)cc3)n2)n1C(C)C
Method in brief: as §1

[8] = compound: Cn1cc(-c2ccc3c(c2)CCN3C(=O)Cc2cccc(C(F)(F)F)c2)c2c(N)ncnc21
Method in brief: as §1

[9] = compound: Cn1cc(-c2ccc3nnc(C(F)(F)c4ccc5ncccc5c4)n3n2)cn1
Method in brief: as §1

tipifarnib = compound: Cn1cncc1[C@@](N)(c1ccc(Cl)cc1)c1ccc2c(c1)c(-c1cccc(Cl)c1)cc(=O)n2C [tipifarnib]
Method in brief: as §1

mubritinib = compound: FC(F)(F)c1ccc(/C=C/c2nc(COc3ccc(CCCCn4ccnn4)cc3)co2)cc1 [mubritinib]
Method in brief: as §1

Measured: log2 fold change

UAP1L1 (UniProt Q3KQV9)
inactive: [1] 0.036 | crizotinib -0.076 | [2] 0.134 | [3] 0.097 | duvelisib 0.109 | gandotinib -0.085 | tozasertib -0.064 | [4] 0.014 | doramapimod 0.001 | ispinesib -0.025 | bafetinib -0.04 | [5] -0.045 | nilotinib -0.085 | [6] 0.036 | dasatinib -0.028 | [7] 0.03 | [8] 0.02 | [9] 0.064 | tipifarnib -0.006 | mubritinib 0.014

TTC19 (UniProt Q6DKK2)
inactive: [1] 0.015 | crizotinib -0.107 | [2] 0.036 | [3] 0.025 | duvelisib 0.062 | gandotinib -0.003 | tozasertib -0.012 | [4] 0.021 | doramapimod -0.004 | ispinesib -0.146 | bafetinib -0.043 | [5] 0.042 | nilotinib -0.045 | [6] -0.041 | dasatinib -0.023 | [7] 0.034 | [8] 0.023 | [9] 0.036 | tipifarnib -0.077 | mubritinib 0.181

UBE2D3 isoform 3 (UniProt P61077)
inactive: [1] 0.009 | crizotinib 0.031 | [2] 0.041 | [3] -0.032 | duvelisib -0.02 | gandotinib -0.04 | tozasertib -0.033 | [4] 0.01 | doramapimod -0.006 | ispinesib 0.024 | bafetinib -0.04 | [5] 0.035 | nilotinib -0.054 | [6] -0.021 | dasatinib -0.024 | [7] -0.011 | [8] -0.03 | [9] 0.01 | tipifarnib -0.007 | mubritinib 0.031

UBA5 (UniProt Q9GZZ9)
inactive: [1] 0.046 | crizotinib -0.02 | [2] 0.026 | [3] 0.019 | duvelisib 0.041 | gandotinib -0.071 | tozasertib -0.025 | [4] -0.005 | doramapimod -0.089 | ispinesib 0.084 | bafetinib -0.048 | [5] 0.013 | nilotinib 0.012 | [6] 0.011 | dasatinib -0.022 | [7] 0.005 | [8] 0.059 | [9] 0.014 | tipifarnib -0.127 | mubritinib 0.016

Looked up one by one from the entries so far (2):
UAP1L1 (UniProt Q3KQV9)
inactive: [1] 0.036 | crizotinib -0.076 | [2] 0.134 | [3] 0.097 | duvelisib 0.109 | gandotinib -0.085 | tozasertib -0.064 | [4] 0.014 | doramapimod 0.001 | ispinesib -0.025 | bafetinib -0.04 | [5] -0.045 | nilotinib -0.085 | [6] 0.036 | dasatinib -0.028 | [7] 0.03 | [8] 0.02 | [9] 0.064 | tipifarnib -0.006 | mubritinib 0.014

UBA5 (UniProt Q9GZZ9)
inactive: [1] 0.046 | crizotinib -0.02 | [2] 0.026 | [3] 0.019 | duvelisib 0.041 | gandotinib -0.071 | tozasertib -0.025 | [4] -0.005 | doramapimod -0.089 | ispinesib 0.084 | bafetinib -0.048 | [5] 0.013 | nilotinib 0.012 | [6] 0.011 | dasatinib -0.022 | [7] 0.005 | [8] 0.059 | [9] 0.014 | tipifarnib -0.127 | mubritinib 0.016

Remaining list, next part

UBA3 (UniProt Q8TBC4)
inactive: [1] 0.039 | crizotinib -0.11 | [2] 0.086 | [3] -0.09 | duvelisib 0.023 | gandotinib -0.111 | tozasertib -0.025 | [4] 0.068 | doramapimod 0.025 | ispinesib -0.017 | bafetinib 0.011 | [5] 0.046 | nilotinib -0.047 | [6] -0.024 | dasatinib -0.154 | [7] -0.021 | [8] 0.089 | [9] 0.041 | tipifarnib -0.122 | mubritinib 0.207

UBE3A (UniProt Q05086)
inactive: [1] 0.016 | crizotinib -0.007 | [2] 0.077 | [3] -0.022 | duvelisib 0.022 | gandotinib -0.018 | tozasertib 0.003 | [4] 0.024 | doramapimod -0.006 | ispinesib 0.03 | bafetinib -0.034 | [5] 0.023 | nilotinib -0.01 | [6] 0.001 | dasatinib -0.044 | [7] -0.026 | [8] 0.021 | [9] -0.002 | tipifarnib -0.015 | mubritinib 0.065

TSR2 (UniProt Q969E8)
inactive: [1] 0.028 | crizotinib 0.047 | [2] -0.011 | [3] -0.158 | duvelisib 0.045 | gandotinib -0.133 | tozasertib 0.149 | [4] 0.008 | doramapimod -0.008 | ispinesib 0.13 | bafetinib 0.044 | [5] -0.064 | nilotinib 0.028 | [6] -0.038 | dasatinib -0.056 | [7] -0.045 | [8] 0.045 | [9] -0.078 | tipifarnib -0.022 | mubritinib 0.006

TXN (UniProt P10599)
inactive: [1] 0.009 | crizotinib 0.014 | [2] -0.047 | [3] -0.061 | duvelisib -0.033 | gandotinib -0.018 | tozasertib -0.028 | [4] -0.079 | doramapimod -0.016 | ispinesib 0.019 | bafetinib -0.034 | [5] 0 | nilotinib 0.033 | [6] -0.018 | dasatinib 0.035 | [7] 0.015 | [8] -0.034 | [9] 0.003 | tipifarnib 0.07 | mubritinib 0.022

TUBB4B (UniProt P68371)
inactive: [1] 0.01 | crizotinib -0.126 | [2] 0.088 | [3] -0.076 | duvelisib 0.037 | gandotinib -0.086 | tozasertib -0.046 | [4] -0.015 | doramapimod 0.011 | ispinesib 0.022 | bafetinib 0.002 | [5] -0.008 | nilotinib 0.028 | [6] 0.012 | dasatinib -0.05 | [7] -0.003 | [8] 0.07 | [9] 0.011 | tipifarnib -0.055 | mubritinib 0.009

TXLNG (UniProt Q9NUQ3)
inactive: [1] -0.018 | crizotinib 0.015 | [2] 0.065 | [3] -0.004 | duvelisib 0.019 | gandotinib 0.005 | tozasertib -0.039 | [4] -0.02 | doramapimod -0.048 | ispinesib 0.056 | bafetinib -0.005 | [5] 0.034 | nilotinib 0.003 | [6] -0.001 | dasatinib 0.001 | [7] 0.004 | [8] 0.032 | [9] 0 | tipifarnib 0.02 | mubritinib 0.042

TSEN54 (UniProt Q7Z6J9)
inactive: [1] -0.117 | crizotinib -0.055 | [2] 0.094 | [3] -0.058 | duvelisib 0.077 | gandotinib -0.019 | tozasertib 0.012 | [4] 0.061 | doramapimod 0.064 | ispinesib -0.096 | bafetinib -0.176 | [5] -0.004 | nilotinib -0.103 | [6] -0.102 | dasatinib -0.114 | [7] 0.039 | [8] 0.045 | [9] 0.039 | tipifarnib 0.03 | mubritinib -0.062

TTC1 (UniProt Q99614)
inactive: [1] 0.022 | crizotinib 0.055 | [2] -0.006 | [3] -0.024 | duvelisib 0.014 | gandotinib 0.043 | tozasertib -0.021 | [4] -0.035 | doramapimod -0.012 | ispinesib 0.037 | bafetinib -0.066 | [5] -0.038 | nilotinib 0.03 | [6] 0.007 | dasatinib 0.003 | [7] -0.022 | [8] 0.006 | [9] 0.02 | tipifarnib 0.022 | mubritinib 0.012

TSR1 (UniProt Q2NL82)
inactive: [1] -0.012 | crizotinib -0.061 | [2] -0.225 | [3] 0.334 | duvelisib -0.011 | gandotinib 0.044 | tozasertib 0.054 | [4] 0.158 | doramapimod 0.138 | ispinesib -0.139 | bafetinib 0.201 | [5] -0.037 | nilotinib -0.048 | [6] 0.135 | dasatinib -0.017 | [7] 0.057 | [8] -0.09 | [9] -0.031 | tipifarnib 0.029 | mubritinib -0.009

TUBB (UniProt P07437)
inactive: [1] 0.045 | crizotinib -0.135 | [2] 0.079 | [3] -0.008 | duvelisib 0.114 | gandotinib -0.059 | tozasertib -0.043 | [4] 0.04 | doramapimod -0.008 | ispinesib -0.026 | bafetinib -0.005 | [5] -0.032 | nilotinib 0.03 | [6] 0.018 | dasatinib -0.054 | [7] -0.019 | [8] 0.076 | [9] 0.003 | tipifarnib 0.011 | mubritinib 0.032

UBE2NL (UniProt Q5JXB2)
inactive: [1] -0.028 | crizotinib 0 | [2] 0.108 | [3] -0.045 | duvelisib 0.048 | gandotinib -0.039 | tozasertib 0.076 | [4] -0.021 | doramapimod 0.002 | ispinesib 0.006 | bafetinib -0.028 | [5] 0.027 | nilotinib 0.005 | [6] -0.048 | dasatinib 0.079 | [7] -0.018 | [8] 0.139 | [9] 0.05 | tipifarnib -0.06 | mubritinib 0.052

TSN (UniProt Q15631)
inactive: [1] -0.072 | crizotinib 0.022 | [2] 0.047 | [3] -0.013 | duvelisib 0.055 | gandotinib -0.041 | tozasertib 0.018 | [4] 0 | doramapimod 0.018 | ispinesib 0.084 | bafetinib 0.045 | [5] -0.028 | nilotinib -0.015 | [6] 0.034 | dasatinib -0.006 | [7] -0.016 | [8] 0.032 | [9] -0.014 | tipifarnib -0.038 | mubritinib 0.017
